About 2,100 (0.66%) of roughly 320,000 compounds were called active. This list was built around the results that the source calls inconclusive (neither active nor inactive); the mix of calls is not that of the screen. Calls follow the shape of the dose curve; as a rule, active = well fitted inhibition curve with a large enough effect in the signal ratio, with a control signal flat (not every such curve was filed as active); inconclusive = small, poorly fitted or top-dose-only effect, or effect the other way, or a change in a side signal; inactive = flat fitted curve, though single readings scatter; the % refers to the signal ratio. Potencies beside an inconclusive call are fits to weak or partial responses and may not hold up.
experiment: qHTS Assay for Lipid Storage Modulators in Drosophila S3 Cells; conditions: BODIPY lipid droplet fluorescence, 18-24 h, cells fed with added oleic acid; lipid storage change, negative = inhibition: at 46.1 µM (top of the series) unless noted
How it was run: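 Drosophila S3 cells loaded with oleic acid (400 uM, as added) and compounds at several concentrations; lipid droplets imaged by 488-nm laser-scanning cytometry, 500–530 nm intensity and object ratio to cell channel. Percent activity normalized to 20 uM Triacsin C.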
% is scaled to controls: 0 for no effect and ±100 for the full control effect; potency is read from the fitted curve at half-maximal effect.

Lipid storage change, negative = inhibition, inconclusive:
COc1ccc(NC(=O)c2csc(C)c2)cc1OC 27.7%, COc1ccc(CC(=O)OCC(=O)c2ccc(S(=O)(=O)N3CCCCC3)cc2)cc1 3.58%, O=C(NCC1CCCN(C(=O)c2cscn2)C1)c1ccccc1Cl (configuration not stated) -5.37%, CC(CNS(=O)(=O)c1ccccc1)Sc1ncccn1 (configuration not stated) -22.4%, Cc1cc(C)c2nc(N3CCCN(C(=O)c4cnccn4)CC3)c(C#N)cc2c1 -4.34%, CNCc1ccccc1OCc1ccccc1F 22.7% [at 9.22 µM], COC(=O)CC(NC(=O)c1cccs1)c1ccc(OC)c(OC)c1 (configuration not stated) 0.966%, CN(c1ccc(OCC(=O)OCC(=O)c2c(N)n(C)c(=O)n(C)c2=O)cc1)S(=O)(=O)c1ccc2ccccc2c1 0.806%, CCOc1ccc(NC(=O)NC(C)CC)cc1 (configuration not stated) 16.1%, Cc1ccc(C(=O)NC(=S)NCC2CCCO2)cc1[N+](=O)[O-] (configuration not stated) 18.3%, COc1ccc(OC)c(S(=O)(=O)Nc2ccccc2C(=O)N2CCCCC2)c1, O=C(COc1ccc(-n2cnnn2)cc1)Nc1cc(Cl)cc(Cl)c1, Cc1ccc(C(=O)Nc2cccc(S(=O)(=O)N(C)c3ccccc3)c2)o1 -1.56%

Potency, active:
COc1ccc(OC)c(NC(=O)CN(Cc2ccc(F)cc2)C2CCCCC2)c1 0.291 µM

Potency, inconclusive:
COc1ccc(N2C(=O)CN=C2Nc2cccc(C)c2C)cc1OC 2.59 µM [activator, single point], COCCOc1ccc(C(F)(F)F)cc1NC(=O)c1ccccc1F 3.26 µM [activator, full curve], Cn1c(=O)c2[nH]c(N3CCOCC3)nc2n(-c2ccccc2)c1=O 25.9 µM [falling, single point], O=C(NNC(=O)C1CC(=O)N(Cc2ccccc2)C1)c1ccc(Br)cc1 (configuration not stated) 23.1 µM [activator, single point], CCOC(=O)Cc1cn(C(=O)OC(C)(C)C)c2ccccc12 0.116 µM [falling, single point], COc1ccccc1NCCC#N 29.1 µM [falling, single point], Cc1ncc(CO)c(/C=N/NC(=O)c2cc3c(s2)CCCC3)c1O 29.1 µM [rising, partial curve, poor fit], O=C(Nc1ccc2c(c1)OCO2)OCc1ccccc1 1.16 µM [activator, partial curve]

— PubChem BioAssay AID2685 (National Center for Advancing Translational Sciences (NCATS), 2010)
